This is an account of results in the supplement of paper PMC8256030.

Several values for one entry are separate records, joined by “and”; a condition that tells them apart may be missing. Equal values may be shown once. Some of the results follow. Single values are uncertain here, since repeats match poorly.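 HEK293T cells were given each compound shortly before transfection with a reporter in which red mCherry is followed by the SARS-CoV-2 frameshift element and then GFP in the −1 frame, so GFP appears only after frameshifting.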

The test system of this test is HEK293T. Description: percent viability (nuclei count) relative to control; higher = more viable cells. Conditions: 10 µM; 24 h.
As for `NCCCCCC(=O)O`, the percent viability amounted to 358%.

Turning to `CCC(C)CCCCC(=O)NCC[C@@H]1NC(=O)[C@H](CC(C)C)NC(=O)[C@H](CCN)NC(=O)[C@H](CC(C)C)NC(=O)[C@H](CCN)NC(=O)[C@H](CCN)NC(=O)[C@H](CCN)NC(=O)[C@H]([C@@H](C)O)NC1=O` (some centres undefined) [colistimethate sodium], the percent viability was 186%.

For `C=CCOc1ccccc1OCC(O)CNC(C)C` (centres undefined) [oxprenolol], the percent viability was 206%.

Turning to `Cc1cc(C(C)(C)C)c(O)c(C)c1CC1=NCCN1` [oxymetazoline], the percent viability was 207% and 141%.

As for `CCCCC1=NC2(CCCC2)C(=O)N1Cc1ccc(-c2ccccc2-c2nnn[nH]2)cc1` [irbesartan], the percent viability came to 363%.

With `COc1cc(/C=C/C(=O)N2CCN(CC(=O)NC(C)C)CC2)cc(OC)c1OC` [cinpropazide], the percent viability came to 189%.

Turning to `CCCCC[C@H](O)/C=C/[C@@H]1[C@H]2C/C(=C/CCCC(=O)O)O[C@H]2C[C@H]1O` [Epoprostenol], the percent viability was 210%.

Turning to `CNCCCC1c2ccccc2C=Cc2ccccc21` [protriptyline], the percent viability is 229%.

`O=C1NC(=O)C(Cc2ccc3cc(OCc4ccccc4F)ccc3c2)S1` (centres undefined) [netoglitazone]: the percent viability was found to be 160%.

Consider `CCOC(=O)[N-]c1c[n+](N2CCOCC2)no1` [Molsidomine], for which the percent viability came to 177%.

As for `CC(Oc1c(Cl)cccc1Cl)C1=NCCN1` (centres undefined), the percent viability is 68.5%.

As for `C[N+](C)(C)CC(O)CC(=O)[O-]` (centres undefined), the percent viability was found to be 67.7%.

For `CC(C)(C)NC[C@H](O)COc1nsnc1N1CCOCC1`, the percent viability turned out to be 91.1%.

For `CC1(C)S[C@@H]2[C@H](NC(=O)[C@H](N)c3ccccc3)C(=O)N2[C@H]1C(=O)O` [ampicillin], the percent viability is 106%.

In the case of `NC(=O)c1cn(Cc2c(F)cccc2F)nn1` [rufinamide], the percent viability is 299%.

With `NC1CCN(c2c(F)cc3c(=O)c(C(=O)O)cn(C4CC4)c3c2Cl)C1` (centres undefined) [Clinafloxacin], the percent viability amounted to 141%.

For the compound `CC(=O)OCC1=C(C(=O)O)N2C(=O)[C@@H](NC(=O)CC#N)[C@H]2SC1` [Celospor], the percent viability came out at 78.5%.

`O=C(O)C1CC(O)CN1` (centres undefined) [Hydroxyproline]: the percent viability turned out to be 300%.

`Cc1cc(O)c(Cl)c(C)c1Cl` [dichloroxylenol]: the percent viability amounted to 155%.

For `OC(CNC12CC3CC(CC(C3)C1)C2)COc1ccccc1` (centres undefined) [mantabegron], the percent viability amounted to 188%.

For `CC(C)NCC(O)COc1cccc2[nH]c3ccccc3c12` (centres undefined) [carazolol], the percent viability worked out at 90.2%.

As to `CC(COc1ccccc1Cc1ccccc1)N1CCCCC1` (centres undefined) [benproperine], the percent viability was 220%.

Regarding `CCCCC(CC)COC(=O)C=Cc1ccc(OC)cc1` (centres undefined) [octinoxate], the percent viability is 65.7%.

Take `CCOC(=O)/C=C(C)/C=C/C=C(C)/C=C/c1c(C)cc(OC)c(C)c1C` [Etretinate]: the percent viability stood at 269%.

As for `CC(C)[C@@H](C)/C=C/[C@@H](C)[C@H]1CC[C@H]2/C(=C/C=C3\C[C@@H](O)CC[C@@H]3C)CCC[C@]12C` [dihydrotachysterol], the percent viability turned out to be 136%.

For `C[C@]12CC[C@@H]3c4ccc(O)cc4C[C@@H](CCCCCCCCC[S+]([O-])CCCC(F)(F)C(F)(F)F)[C@H]3[C@@H]1CC[C@@H]2O` (some centres undefined) [Fulvestrant], the percent viability amounted to 181%.

As to `CCCCS(=O)(=O)N[C@@H](Cc1ccc(OCCCCC2CCNCC2)cc1)C(=O)O` [tirofiban], the percent viability worked out at 273%.

`CC(C)(Oc1ccc(Cl)cc1)C(=O)O` [clofibric acid]: the percent viability turned out to be 215%.

For `C=C1/C(=C\C=C2/CCC[C@]3(C)[C@@H]([C@H](C)/C=C/[C@@H](O)C4CC4)CC[C@@H]23)C[C@@H](O)C[C@@H]1O` [calcipotriol], the percent viability is 183% and 248%.

For `CC(=O)CCCCn1c(=O)c2c(ncn2C)n(C)c1=O` [pentoxifylline], the percent viability is 295% and 253%.

Turning to `COc1cc(/C=C/C(N)=O)cc(OC)c1OC`, the percent viability worked out at 110%.

For the compound `CCCC(=O)c1ccc2c(c1)N(CCCN1CCN(C)CC1)c1ccccc1S2` [butaperazine], the percent viability came to 376%.

Take `CCN(CC)CC(=O)OCC(=O)[C@@]1(O)CC[C@H]2[C@@H]3CCC4=CC(=O)C=C[C@]4(C)[C@H]3[C@@H](O)C[C@@]21C` [prednisolamate]: the percent viability came to 278%.

`CN1C(C(=O)Nc2ccccn2)=C(O)c2sccc2S1(=O)=O`: the percent viability turned out to be 317%.

For `CC(C)(CO)NCC(O)c1ccccc1` (centres undefined) [fepradinol], the percent viability turned out to be 298%.

For the compound `CCOC(=O)O[C@]1(C(=O)COC(=O)CC)CC[C@H]2[C@@H]3CCC4=CC(=O)C=C[C@]4(C)[C@H]3[C@@H](O)C[C@@]21C`, the percent viability was found to be 213%.

In the case of `NC(=O)c1ccc(F)c2c1C[C@@H](N(C1CCC1)C1CCC1)CO2` [robalzotan], the percent viability was determined as 116%.

With `CC(C)(CO)[C@@H](O)C(=O)NCCC(=O)O` [Pantothenic acid], the percent viability was determined as 164%.

Take `COc1ccc(-n2c(C)c[nH]c2=O)cc1` [metazamide]: the percent viability came to 202%.
